{
  "source": "paper PMC7822592",
  "about": "“The half-life of the bone-derived hormone osteocalcin is regulated through O-glycosylation in mice, but not in humans” (eLife, 2020)",
  "key": {"[1]": {"conditions": "human, mean ± SD, 2013, Cioffi et al., 1997, cited from earlier work"}, "[2]": {"test": "OCN serum levels in wildtype mice at different ages", "format": "in vivo, mouse", "conditions": "for Serum osteocalcin concentration: wild type male mice; for OCN serum levels: wildtype male mice, mean ± SD"}},
  "note": "Like-named read-outs stand apart in the source and are kept apart here.",
  "data": [
    {"substance": "OCN: Osteocalcin, peptide hormone secreted by osteoblasts; endogenous serum protein in mouse or human (YLYQWLGAPVPYPDPLEPRREVCELNPDCDELADHIGFQEAYRRFYGPV; Osteocalcin; UniProt P02818 52-100, looked up)", "values": [
      {"measurement": "OCN serum levels", "setting": "[1]; 1 year old, n = 43, ref Hannemann et al.", "value": "62.9 ± 8.1 (43) ng/ml"},
      {"measurement": "OCN serum levels", "setting": "[1]; 11–13 years old, n = 41, ref Hannemann et al.", "value": "74.1 ± 8.9 (41) ng/ml"},
      {"measurement": "OCN serum levels", "setting": "[1]; 25–29 years old, n = 49, ref Hannemann et al.", "value": "21.0 ± 6.3 (49) ng/ml"},
      {"measurement": "OCN serum levels", "setting": "[1]; 50–54 years old, n = 127, ref Hannemann et al.", "value": "13.5 ± 6.3 (127) ng/ml"},
      {"measurement": "Serum osteocalcin concentration", "setting": "[2]; 2 weeks old, mouse 1", "value": 1639.7, "unit": "ng/mL"},
      {"measurement": "Serum osteocalcin concentration", "setting": "[2]; 2 weeks old, mouse 2", "value": 1232.6, "unit": "ng/mL"},
      {"measurement": "Serum osteocalcin concentration", "setting": "[2]; 2 weeks old, mouse 3", "value": 1173.8, "unit": "ng/mL"},
      {"measurement": "Serum osteocalcin concentration", "setting": "[2]; 2 weeks old, mouse 4", "value": 1429.5, "unit": "ng/mL"},
      {"measurement": "Serum osteocalcin concentration", "setting": "[2]; 2 weeks old, mouse 5", "value": 1360.3, "unit": "ng/mL"},
      {"measurement": "Serum osteocalcin concentration", "setting": "[2]; 2 weeks old, mouse 6", "value": 1387.8, "unit": "ng/mL"},
      {"measurement": "Serum osteocalcin concentration", "setting": "[2]; 2 weeks old, mouse 7", "value": 1275.8, "unit": "ng/mL"},
      {"measurement": "Serum osteocalcin concentration", "setting": "[2]; 2 weeks old, mouse 8", "value": 1457.8, "unit": "ng/mL"},
      {"measurement": "Serum osteocalcin concentration", "setting": "[2]; 4 weeks old, mouse 1", "value": 399.3, "unit": "ng/mL"},
      {"measurement": "Serum osteocalcin concentration", "setting": "[2]; 4 weeks old, mouse 2", "value": 572.3, "unit": "ng/mL"},
      {"measurement": "Serum osteocalcin concentration", "setting": "[2]; 4 weeks old, mouse 3", "value": 892.7, "unit": "ng/mL"},
      {"measurement": "Serum osteocalcin concentration", "setting": "[2]; 4 weeks old, mouse 4", "value": 504.0, "unit": "ng/mL"},
      {"measurement": "Serum osteocalcin concentration", "setting": "[2]; 4 weeks old, mouse 5", "value": 717.3, "unit": "ng/mL"},
      {"measurement": "Serum osteocalcin concentration", "setting": "[2]; 13 weeks old, mouse 1", "value": 255.0, "unit": "ng/mL"},
      {"measurement": "Serum osteocalcin concentration", "setting": "[2]; 13 weeks old, mouse 2", "value": 245.8, "unit": "ng/mL"},
      {"measurement": "Serum osteocalcin concentration", "setting": "[2]; 13 weeks old, mouse 3", "value": 245.8, "unit": "ng/mL"},
      {"measurement": "Serum osteocalcin concentration", "setting": "[2]; 13 weeks old, mouse 4", "value": 262.2, "unit": "ng/mL"},
      {"measurement": "Serum osteocalcin concentration", "setting": "[2]; 60 weeks old, mouse 1", "value": 60.7, "unit": "ng/mL"},
      {"measurement": "Serum osteocalcin concentration", "setting": "[2]; 60 weeks old, mouse 2", "value": 45.9, "unit": "ng/mL"},
      {"measurement": "Serum osteocalcin concentration", "setting": "[2]; 60 weeks old, mouse 3", "value": 45.6, "unit": "ng/mL"},
      {"measurement": "Serum osteocalcin concentration", "setting": "[2]; 60 weeks old, mouse 4", "value": 47.7, "unit": "ng/mL"},
      {"measurement": "OCN serum levels", "setting": "[2]; 2 weeks, n = 8, ELISA", "value": "1369.7 ± 146.7 (8) ng/ml"},
      {"measurement": "OCN serum levels", "setting": "[2]; 4 weeks, n = 5, ELISA", "value": "617.2 ± 192.5 (5) ng/ml"},
      {"measurement": "OCN serum levels", "setting": "[2]; 13 weeks, n = 4, ELISA", "value": "252.2 ± 8.0 (4) ng/ml"},
      {"measurement": "OCN serum levels", "setting": "[2]; 60 weeks, n = 4, ELISA", "value": "50.0 ± 7.2 (4) ng/ml"}
    ]}
  ]
}
